Results are given in words; binding and its absence hold for the method and conditions named. Binding seen in cells or lysates may run through a third protein. Some entries that bind do so weakly or less than the wild type. For some assays here: Sequences can lack the tags named with a protein.

The chains behind the UniProt entries cited, without tags or fusion partners.
UniProt Q9Y6W5: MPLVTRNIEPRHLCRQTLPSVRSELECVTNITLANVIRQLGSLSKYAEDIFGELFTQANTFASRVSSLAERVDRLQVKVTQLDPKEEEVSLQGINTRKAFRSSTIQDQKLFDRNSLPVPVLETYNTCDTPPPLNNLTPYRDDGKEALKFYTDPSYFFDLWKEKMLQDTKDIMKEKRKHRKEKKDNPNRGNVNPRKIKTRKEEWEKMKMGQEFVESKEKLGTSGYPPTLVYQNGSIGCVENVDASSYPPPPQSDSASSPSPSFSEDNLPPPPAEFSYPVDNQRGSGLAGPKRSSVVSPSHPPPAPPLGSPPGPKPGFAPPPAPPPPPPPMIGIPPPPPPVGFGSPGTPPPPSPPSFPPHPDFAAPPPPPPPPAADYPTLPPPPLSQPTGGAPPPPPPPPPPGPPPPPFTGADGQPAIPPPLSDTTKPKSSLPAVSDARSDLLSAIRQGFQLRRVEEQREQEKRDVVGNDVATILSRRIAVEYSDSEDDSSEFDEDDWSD

The target of one test is T1, FRS2-mNeonGreen (human) (UniProt Q8WU20).
T1 sequence: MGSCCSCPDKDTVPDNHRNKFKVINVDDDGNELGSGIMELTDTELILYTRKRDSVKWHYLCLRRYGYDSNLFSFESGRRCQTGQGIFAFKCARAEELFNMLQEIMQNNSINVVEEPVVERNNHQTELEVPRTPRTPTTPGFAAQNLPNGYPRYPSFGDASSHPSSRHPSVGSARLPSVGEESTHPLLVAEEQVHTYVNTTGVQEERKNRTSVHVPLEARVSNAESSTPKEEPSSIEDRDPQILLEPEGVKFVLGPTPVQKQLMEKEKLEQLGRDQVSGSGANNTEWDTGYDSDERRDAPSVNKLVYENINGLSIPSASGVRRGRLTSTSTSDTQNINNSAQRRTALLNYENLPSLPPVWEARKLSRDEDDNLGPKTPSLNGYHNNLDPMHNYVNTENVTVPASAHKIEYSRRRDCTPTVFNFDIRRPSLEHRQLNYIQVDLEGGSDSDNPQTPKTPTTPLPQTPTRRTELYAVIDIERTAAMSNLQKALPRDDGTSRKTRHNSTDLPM
The test is described as follows: co-IP; mNeonGreen-Trap magnetic agarose on lysates of UW228 FRS2-mNG/mCherry-Nuc cells (UW228 WT as control), serum-starved, with or without 50 ng/mL bFGF for 5 min; lysis in 10 mM Tris, 150 mM NaCl, 0.5 mM EDTA, 0.25% NP-40, pH 7.5; 90 min at 4 C; immunoblot of the eluate. (In western blotting, separated proteins are transferred to a membrane and probed.)

In test [1] the target is T2, biotinylated FGFR peptide.
T2 sequence (peptide, biotin on the N-terminus): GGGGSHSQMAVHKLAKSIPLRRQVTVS
Briefly: pull-down; biotinylated FGFR peptide on streptavidin Dynabeads, incubated with cell lysates 90 min at 4 C and 90 min at RT; immunoblot of eluates; only the target purified.

“Actin-binding protein WASF2 (from UniProt Q9Y6W5 1-498)”: the binding entry with FRS2-mNeonGreen (human) is recorded as “binds”.

B1: FRS2-APEX2-V5 (protein, UniProt Q8WU20 1-508)
chain: T1 sequence
Regarding B1, the binding entry in test [1] is on record as “binds”.
